± gives the standard deviation of the averaged measurements. Small differences around the control level are noise.
Tests used:
Experiment in all cases: level (log10 ratio to DMSO vehicle control); higher = higher biomarker level / cell amount than vehicle control
[1] = compound: C=C(C)C(=O)OCC(F)(F)C(F)(F)C(F)(F)F [2,2,3,3,4,4,4-Heptafluorobutyl methacrylate]; conditions: 2200 nM; in DMSO
Description: (§1)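 BioMAP Diversity Plus panel of 12 human primary cell co-culture systems (3C, 4H, LPS, SAg, BT, BF4T, BE3C, CASM3C, HDF3CGF, KF3CT, MyoF, Mphg). Compounds were added 1 h before stimulation and left for 24 h (MyoF 48 h; BT 72 h for soluble read-outs or 6 d for IgG). Biomarkers were read by ELISA, cytotoxicity by SRB, PBMC viability and proliferation by Alamar Blue. Each well value was divided by the mean of 8 DMSO control wells on the same plate and log10 transformed; duplicate blinded samples were tested at 4 concentrations.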

[2] = compound: C=CC(=O)OCC(F)(F)C(F)(F)C(F)(F)C(F)(F)COC(=O)C=C [1H,1H,6H,6H-Perfluorohexane-1,6-diol diacrylate]; conditions: 2200 nM; in DMSO
Description: as §1

[3] = compound: FC(F)(F)C(F)(F)C(F)(F)C(F)(F)C(F)(F)C(F)(F)C(F)(F)CCI [1-Iodo-1H,1H,2H,2H-perfluorononane]; conditions: in DMSO
Description: as §1

[4] = compound: FC(F)(F)C(F)(F)C(F)(F)C(F)(F)C(F)(F)C(F)(F)C(F)(F)I [1-Iodopentadecafluoroheptane]; conditions: in DMSO
Description: as §1

[5] = compound: FC(F)C(F)(F)COCC1CO1 [((2,2,3,3-Tetrafluoropropoxy)methyl)oxirane]; conditions: 2200 nM; in DMSO
Description: as §1

[6] = compound: NC(=O)C(F)(F)C(F)(F)C(F)(F)C(F)(F)C(F)(F)C(F)(F)C(F)(F)F [Perfluorooctanamide]; conditions: 2200 nM; in DMSO
Description: as §1

[7] = compound: O=C(O)C(F)(F)C(F)(F)C(F)(F)C(F)(F)C(F)(F)C(F)(F)C(F)(F)C(F)(F)C(F)(F)C(F)(F)F [Perfluoroundecanoic acid]; conditions: in DMSO
Description: as §1

[8] = compound: O=C(O)C(F)(F)C(F)(F)C(F)(F)C(F)(F)C(F)(F)C(F)(F)C(F)(F)C(F)F [9-H-Perfluorononanoic acid]; conditions: 2200 nM; in DMSO
Description: as §1

[9] = compound: O=C(O)C(F)(F)C(F)(F)C(F)(F)F [Perfluorobutanoic acid]; conditions: 2200 nM; in DMSO
Description: as §1

[10] = compound: O=C(O)C(F)(F)C(F)(F)F [Perfluoropropanoic acid]; conditions: 2200 nM; in DMSO
Description: as §1

[11] = compound: O=C(O)C(F)(F)C(F)(F)OC(F)(F)F [Perfluoro-3-methoxypropanoic acid]; conditions: 2200 nM; in DMSO
Description: as §1

[12] = compound: O=C(O)C(F)(F)OC(F)(F)C(F)(F)OC(F)(F)C(=O)O [Perfluoro-3,6-dioxaoctane-1,8-dioic acid]; conditions: 2200 nM; in DMSO
Description: as §1

[13] = compound: O=C(O)C(F)(F)OC(F)(F)C(F)(F)OC(F)(F)C(F)(F)C(F)(F)C(F)(F)F [Perfluoro-3,6-dioxadecanoic acid]; conditions: 2200 nM; in DMSO
Description: as §1

[14] = compound: O=C(O)C=CC(F)(C(F)(F)F)C(F)(F)F [3-(Perfluoroisopropyl)-2-propenoic acid]; conditions: in DMSO
Description: as §1

[15] = compound: O=P(O)(O)CCC(F)(F)C(F)(F)C(F)(F)C(F)(F)C(F)(F)C(F)(F)C(F)(F)C(F)(F)F [((Perfluorooctyl)ethyl)phosphonic acid]; conditions: 2200 nM; in DMSO
Description: as §1

[16] = compound: O=S(=O)(Cl)C(F)(F)C(F)(F)C(F)(F)C(F)(F)C(F)(F)C(F)(F)C(F)(F)C(F)(F)F [Perfluoro-1-octanesulfonyl chloride]; conditions: 2200 nM; in DMSO
Description: as §1

[17] = compound: OCC(F)(F)C(F)(F)C(F)(F)C(F)(F)C(F)(F)C(F)(F)C(F)(F)C(F)(F)C(F)(F)C(F)(F)C(F)(F)F [11:1 Fluorotelomer alcohol]; conditions: in DMSO
Description: as §1

[18] = compound: OCCC(F)(F)C(F)(F)C(F)(F)C(F)(F)C(F)(F)C(F)(F)C(F)(F)C(F)(F)F [8:2 Fluorotelomer alcohol]; conditions: 2200 nM; in DMSO
Description: as §1

Row | Test System | level (log10) [1] | level (log10) [2] | level (log10) ([3]; 740 nM) | level (log10) ([3]; 2200 nM) | level (log10) ([3]; 6700 nM) | level (log10) ([3]; 20000 nM) | level (log10) ([4]; 740 nM) | level (log10) ([4]; 2200 nM) | level (log10) ([4]; 6700 nM) | level (log10) ([4]; 20000 nM) | level (log10) [5] | level (log10) [6] | level (log10) ([7]; 740 nM) | level (log10) ([7]; 2200 nM) | level (log10) [8] | level (log10) [9] | level (log10) [10] | level (log10) [11] | level (log10) [12] | level (log10) [13] | level (log10) ([14]; 2200 nM) | level (log10) ([14]; 6700 nM) | level (log10) ([14]; 20000 nM) | level (log10) ([14]; 60000 nM) | level (log10) [15] | level (log10) [16] | level (log10) ([17]; 370 nM) | level (log10) ([17]; 1100 nM) | level (log10) ([17]; 3300 nM) | level (log10) ([17]; 10000 nM) | level (log10) [18]
1 | 4H:CCL2/MCP-1 | 0.01 ± 0.028 | -0.0085 ± 0.005 | 0.0095 ± 0.11 | -0.0495 ± 0.012 | -0.0175 ± 0.019 | 0.0395 ± 0.1 | -0.011 ± 0.014 | -0.019 ± 0.018 | -0.015 ± 0.033 | 0.0095 ± 0.037 | 0.043 ± 0.028 | 0.0035 ± 0.036 | -0.0045 ± 0.044 | -0.024 ± 0.0014 | -0.0095 ± 0.096 | -0.0125 ± 0.00071 | -0.02 ± 0.011 | 0.0215 ± 0.061 | 0.025 ± 0.045 | 0.025 ± 0.045 | 0.008 ± 0.048 | 0.008 ± 0.025 | -0.0105 ± 0.022 | 0.0005 ± 0.0064 | 0.015 ± 0.027 | 0.0015 ± 0.042 | 0.0375 ± 0.056 | 0.0335 ± 0.033 | 0.0495 ± 0.00071 | 0.0835 ± 0.023 | 0.003 ± 0.058
2 | CASM3C:Serum Amyloid A | 0.0105 ± 0.0078 | -0.0375 ± 0.018 | 0.016 ± 0.034 | -0.0215 ± 0.011 | -0.007 ± 0.031 | 0.0135 ± 0.076 | 0.019 ± 0.017 | -0.024 | -0.035 | 0.008 ± 0.024 | -0.01 ± 0.011 | -0.0075 ± 0.023 | 0.0065 ± 0.05 | 0.019 ± 0.0085 | 0.007 ± 0.069 | -0.014 ± 0.0071 | -0.037 ± 0.068 | 0.03 ± 0.098 | 0.0145 ± 0.086 | 0.0115 ± 0.0021 | 0.0315 ± 0.06 | 0.0085 ± 0.005 | -0.023 ± 0.017 | 0.026 ± 0.045 | 0.0285 ± 0.066 | -0.0105 ± 0.03 | -0.018 ± 0.034 | -0.0025 ± 0.044 | -0.0045 ± 0.0078 | 0.0045 ± 0.016 | -0.0025 ± 0.032
3 | HDF3CGF:CXCL8/IL-8 | 0.001 ± 0.0085 | -0.004 ± 0.0071 | 0.0165 ± 0.0092 | 0.0025 ± 0.005 | 0.002 ± 0.0014 | 0.0165 ± 0.019 | 0 ± 0.017 | -0.0025 ± 0.0092 | -0.0055 ± 0.00071 | -0.001 | -0.0035 ± 0.00071 | 0.0015 ± 0.0078 | 0.0025 ± 0.018 | -0.003 ± 0.0042 | 0.009 ± 0.0042 | -0.004 ± 0.018 | 0.003 ± 0.0042 | -0.0005 ± 0.011 | -0.005 ± 0.0085 | 0.0015 ± 0.0064 | -0.011 ± 0.02 | -0.008 ± 0.0042 | 0.004 ± 0.011 | 0.0065 ± 0.013 | 0.0005 ± 0.0035 | -0.0065 ± 0.0021 | 0 ± 0.0099 | -0.002 ± 0.0057 | -0.007 | -0.001 | -0.004 ± 0.021
4 | CASM3C:Proliferation | -0.003 ± 0.017 | 0.0385 ± 0.018 | 0.006 ± 0.0071 | -0.0045 ± 0.012 | -0.001 | 0.0105 ± 0.04 | -0.112 ± 0.13 | -0.0155 ± 0.032 | -0.003 ± 0.027 | -0.045 ± 0.0042 | -0.0055 ± 0.053 | -0.0245 ± 0.012 | 0.006 ± 0.034 | 0.032 ± 0.025 | -0.012 ± 0.016 | -0.0115 ± 0.00071 | 0.0295 ± 0.043 | -0.014 ± 0.018 | -0.0025 ± 0.0021 | 0.0015 ± 0.0064 | 0.0235 ± 0.022 | 0.0035 ± 0.019 | -0.009 ± 0.0085 | 0.009 ± 0.059 | -0.001 ± 0.0085 | -0.03 ± 0.041 | 0.0025 ± 0.022 | 0.0145 ± 0.0078 | -0.0185 ± 0.005 | 0.0565 ± 0.0092 | -0.0275 ± 0.032
5 | lMphg:CCL3/MIP-1alpha | 0.001 ± 0.023 | 0.024 ± 0.057 | 0.0085 ± 0.028 | -0.01 ± 0.018 | -0.001 | 0.045 ± 0.033 | 0.011 ± 0.02 | 0.0165 ± 0.016 | 0.0225 ± 0.023 | 0.0175 ± 0.049 | -0.0345 ± 0.046 | -0.016 ± 0.014 | -0.016 ± 0.028 | 0.0265 ± 0.013 | 0.0045 ± 0.0064 | 0.03 ± 0.038 | 0.024 ± 0.038 | -0.048 ± 0.0042 | -0.0095 ± 0.019 | -0.0195 ± 0.064 | -0.0085 ± 0.015 | -0.031 ± 0.018 | -0.0285 ± 0.016 | -0.0125 ± 0.016 | -0.0075 ± 0.00071 | -0.0315 ± 0.013 | 0.0285 ± 0.016 | 0.014 ± 0.011 | -0.0165 ± 0.026 | -0.06 ± 0.021 | 0.0065 ± 0.033
6 | 4H:CD87/uPAR | 0.014 ± 0.083 | -0.0035 ± 0.033 | 0.034 ± 0.0042 | 0.0295 ± 0.00071 | 0.0135 ± 0.00071 | 0.0025 ± 0.026 | 0.026 ± 0.057 | -0.0025 ± 0.049 | -0.013 ± 0.023 | 0.0035 ± 0.012 | -0.022 ± 0.04 | 0.0295 ± 0.073 | 0.017 ± 0.018 | -0.0025 ± 0.011 | 0.0095 ± 0.011 | -0.014 ± 0.051 | -0.0095 ± 0.00071 | -0.0255 ± 0.016 | 0.011 ± 0.0028 | -0.009 ± 0.0042 | 0.0575 ± 0.074 | 0.034 ± 0.016 | 0.055 ± 0.054 | 0.105 ± 0.027 | 0.042 ± 0.055 | -0.023 ± 0.054 | -0.008 ± 0.0057 | -0.0285 ± 0.037 | -0.0415 ± 0.028 | 0 ± 0.059 | -0.047 ± 0.041
7 | lMphg:CCL2/MCP-1 | -0.02 ± 0.0014 | 0.0275 ± 0.053 | 0.0075 ± 0.029 | -0.01 ± 0.0042 | -0.014 ± 0.0071 | 0.0385 ± 0.032 | 0.037 ± 0.027 | 0.026 ± 0.0028 | 0.009 ± 0.0085 | 0.018 ± 0.02 | -0.038 ± 0.048 | 0.021 | 0.031 ± 0.02 | 0.0355 ± 0.043 | -0.005 ± 0.027 | 0.005 ± 0.041 | -0.022 ± 0.03 | -0.011 ± 0.016 | -0.011 ± 0.0071 | -0.054 ± 0.047 | 0.0055 ± 0.012 | -0.023 ± 0.014 | -0.0275 ± 0.011 | 0.006 ± 0.03 | -0.0065 ± 0.021 | 0.001 ± 0.013 | -0.008 ± 0.0071 | 0.0125 ± 0.0078 | 0.0295 ± 0.035 | 0.0535 ± 0.0021 | 0.0205 ± 0.0092

From the supplement of paper PMC10331698
